This is one part of the list.
How the values were obtained:
Test in all cases: log2 fold change, soluble protein after heating vs DMSO (PISA); higher = thermal stabilisation; K562 cells, 10 uM, 30 min; active = over 0.2 and 3.5 SD of the protein, either way, in both replicates (recomputed)
[1] = compound: CC1=C(C=C(C=C1)NC(=O)C2=CC(=CC=C2)C(C)(C)C#N)NC3=CC4=C(C=C3)N=CN(C4=O)C
Summary of the method: (§1)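 K562 cells at 2×10^6 cells/mL were treated with 10 μM compound for 30 min. Aliquots were heated for 3 min across 48°C-58°C, pooled, and extracted in PBS with 0.5% NP-40 at 4°C; soluble protein was the supernatant after 21,000xg for 90 min. Soluble protein was quantified by TMTpro 16plex LC-MS/MS with channel sums equalised, and reported as log2 fold change in thermal stability against DMSO controls, with values from duplicates.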

Amino acid sequences for entries named in this document (tags omitted). A change or cut given only in a name is not applied to a line headed by its entry.
UniProt Q9ULT8: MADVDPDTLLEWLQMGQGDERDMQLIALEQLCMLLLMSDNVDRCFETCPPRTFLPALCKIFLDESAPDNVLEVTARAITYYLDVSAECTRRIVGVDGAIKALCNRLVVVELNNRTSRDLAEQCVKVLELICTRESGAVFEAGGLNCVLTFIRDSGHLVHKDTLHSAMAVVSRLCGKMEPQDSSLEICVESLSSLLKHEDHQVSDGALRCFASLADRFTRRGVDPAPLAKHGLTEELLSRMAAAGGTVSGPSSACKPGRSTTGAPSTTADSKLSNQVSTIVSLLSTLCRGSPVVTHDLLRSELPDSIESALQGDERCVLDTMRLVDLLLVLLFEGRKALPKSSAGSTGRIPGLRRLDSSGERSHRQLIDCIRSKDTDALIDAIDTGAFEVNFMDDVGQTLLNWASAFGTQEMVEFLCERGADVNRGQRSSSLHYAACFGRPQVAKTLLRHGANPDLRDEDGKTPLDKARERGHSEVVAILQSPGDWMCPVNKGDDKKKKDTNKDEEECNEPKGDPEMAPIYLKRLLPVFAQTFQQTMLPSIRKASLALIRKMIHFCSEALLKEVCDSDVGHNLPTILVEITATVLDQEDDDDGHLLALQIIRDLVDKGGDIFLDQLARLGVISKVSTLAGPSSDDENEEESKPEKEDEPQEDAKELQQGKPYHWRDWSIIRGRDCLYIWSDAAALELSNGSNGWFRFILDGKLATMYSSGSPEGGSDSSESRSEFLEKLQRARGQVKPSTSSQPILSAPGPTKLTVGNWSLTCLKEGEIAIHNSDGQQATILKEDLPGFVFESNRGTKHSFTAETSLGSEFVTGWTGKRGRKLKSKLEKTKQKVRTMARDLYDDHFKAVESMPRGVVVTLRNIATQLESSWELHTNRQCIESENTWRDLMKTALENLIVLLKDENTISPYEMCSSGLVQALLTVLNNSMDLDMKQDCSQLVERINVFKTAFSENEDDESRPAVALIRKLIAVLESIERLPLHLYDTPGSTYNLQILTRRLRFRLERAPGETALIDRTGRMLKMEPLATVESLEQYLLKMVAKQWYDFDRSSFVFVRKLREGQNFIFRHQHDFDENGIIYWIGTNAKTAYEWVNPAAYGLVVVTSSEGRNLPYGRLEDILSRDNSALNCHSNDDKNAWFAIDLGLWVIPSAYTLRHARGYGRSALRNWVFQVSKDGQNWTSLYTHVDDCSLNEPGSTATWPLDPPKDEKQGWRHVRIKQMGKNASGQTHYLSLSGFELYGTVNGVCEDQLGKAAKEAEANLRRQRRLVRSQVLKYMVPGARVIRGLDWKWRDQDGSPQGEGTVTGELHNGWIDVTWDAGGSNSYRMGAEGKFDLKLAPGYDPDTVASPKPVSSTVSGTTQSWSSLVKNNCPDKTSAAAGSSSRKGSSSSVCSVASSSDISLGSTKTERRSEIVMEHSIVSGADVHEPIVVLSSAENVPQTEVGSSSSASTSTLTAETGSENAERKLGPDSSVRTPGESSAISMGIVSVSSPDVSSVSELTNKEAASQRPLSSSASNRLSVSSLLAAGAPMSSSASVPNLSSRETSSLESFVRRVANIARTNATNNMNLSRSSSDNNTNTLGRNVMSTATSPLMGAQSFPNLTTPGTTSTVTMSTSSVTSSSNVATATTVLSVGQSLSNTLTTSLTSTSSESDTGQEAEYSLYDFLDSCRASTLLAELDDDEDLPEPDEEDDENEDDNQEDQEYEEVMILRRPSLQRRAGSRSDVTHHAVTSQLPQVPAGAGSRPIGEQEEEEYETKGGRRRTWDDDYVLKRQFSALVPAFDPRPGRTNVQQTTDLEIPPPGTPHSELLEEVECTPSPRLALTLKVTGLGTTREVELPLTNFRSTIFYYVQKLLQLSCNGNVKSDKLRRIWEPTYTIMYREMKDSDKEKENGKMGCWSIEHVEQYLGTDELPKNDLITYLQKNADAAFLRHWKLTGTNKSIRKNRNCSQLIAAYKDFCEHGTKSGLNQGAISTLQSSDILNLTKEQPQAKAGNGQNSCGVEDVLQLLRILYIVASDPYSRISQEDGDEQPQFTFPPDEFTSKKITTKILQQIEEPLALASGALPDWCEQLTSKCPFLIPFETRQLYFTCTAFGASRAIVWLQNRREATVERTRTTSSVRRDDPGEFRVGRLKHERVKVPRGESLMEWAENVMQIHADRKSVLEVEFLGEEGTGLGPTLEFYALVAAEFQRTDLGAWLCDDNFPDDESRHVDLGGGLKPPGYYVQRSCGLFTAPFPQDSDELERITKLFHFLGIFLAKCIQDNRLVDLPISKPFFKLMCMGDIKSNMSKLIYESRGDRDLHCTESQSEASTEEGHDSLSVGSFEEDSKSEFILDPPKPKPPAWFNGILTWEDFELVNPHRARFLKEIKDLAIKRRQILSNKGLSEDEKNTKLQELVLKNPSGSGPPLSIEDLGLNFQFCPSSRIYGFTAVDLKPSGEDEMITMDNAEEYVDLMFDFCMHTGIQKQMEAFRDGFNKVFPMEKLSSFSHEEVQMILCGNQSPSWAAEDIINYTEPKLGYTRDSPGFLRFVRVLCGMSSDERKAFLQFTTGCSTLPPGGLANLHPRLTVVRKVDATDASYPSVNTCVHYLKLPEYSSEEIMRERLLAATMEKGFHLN
UniProt P46439: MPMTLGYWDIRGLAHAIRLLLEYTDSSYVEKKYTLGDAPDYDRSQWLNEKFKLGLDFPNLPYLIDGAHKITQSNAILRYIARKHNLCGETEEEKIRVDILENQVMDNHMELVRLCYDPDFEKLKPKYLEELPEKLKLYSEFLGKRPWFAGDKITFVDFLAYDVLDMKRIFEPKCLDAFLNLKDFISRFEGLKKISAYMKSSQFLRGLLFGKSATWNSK
UniProt Q00403, whole entry, looked up: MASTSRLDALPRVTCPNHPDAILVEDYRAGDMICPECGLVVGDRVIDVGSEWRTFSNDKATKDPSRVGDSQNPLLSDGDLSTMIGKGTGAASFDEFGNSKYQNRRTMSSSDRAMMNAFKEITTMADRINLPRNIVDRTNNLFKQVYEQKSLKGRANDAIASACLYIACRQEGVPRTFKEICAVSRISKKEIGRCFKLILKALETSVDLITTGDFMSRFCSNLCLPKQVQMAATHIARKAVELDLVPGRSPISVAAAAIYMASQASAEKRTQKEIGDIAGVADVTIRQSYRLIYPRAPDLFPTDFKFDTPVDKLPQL
UniProt Q13547, whole entry, looked up: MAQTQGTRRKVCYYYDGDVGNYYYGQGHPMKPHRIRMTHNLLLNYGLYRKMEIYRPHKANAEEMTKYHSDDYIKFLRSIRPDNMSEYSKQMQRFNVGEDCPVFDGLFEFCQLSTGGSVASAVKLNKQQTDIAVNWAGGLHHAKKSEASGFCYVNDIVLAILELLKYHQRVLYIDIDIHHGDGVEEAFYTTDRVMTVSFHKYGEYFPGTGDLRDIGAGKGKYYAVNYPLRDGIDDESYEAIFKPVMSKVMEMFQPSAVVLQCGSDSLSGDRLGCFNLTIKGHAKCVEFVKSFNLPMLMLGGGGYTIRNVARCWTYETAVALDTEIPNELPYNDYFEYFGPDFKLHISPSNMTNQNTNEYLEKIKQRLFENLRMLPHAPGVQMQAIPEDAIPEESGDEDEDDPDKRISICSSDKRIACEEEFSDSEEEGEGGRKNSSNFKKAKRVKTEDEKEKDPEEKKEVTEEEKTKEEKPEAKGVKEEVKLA
UniProt Q9H583: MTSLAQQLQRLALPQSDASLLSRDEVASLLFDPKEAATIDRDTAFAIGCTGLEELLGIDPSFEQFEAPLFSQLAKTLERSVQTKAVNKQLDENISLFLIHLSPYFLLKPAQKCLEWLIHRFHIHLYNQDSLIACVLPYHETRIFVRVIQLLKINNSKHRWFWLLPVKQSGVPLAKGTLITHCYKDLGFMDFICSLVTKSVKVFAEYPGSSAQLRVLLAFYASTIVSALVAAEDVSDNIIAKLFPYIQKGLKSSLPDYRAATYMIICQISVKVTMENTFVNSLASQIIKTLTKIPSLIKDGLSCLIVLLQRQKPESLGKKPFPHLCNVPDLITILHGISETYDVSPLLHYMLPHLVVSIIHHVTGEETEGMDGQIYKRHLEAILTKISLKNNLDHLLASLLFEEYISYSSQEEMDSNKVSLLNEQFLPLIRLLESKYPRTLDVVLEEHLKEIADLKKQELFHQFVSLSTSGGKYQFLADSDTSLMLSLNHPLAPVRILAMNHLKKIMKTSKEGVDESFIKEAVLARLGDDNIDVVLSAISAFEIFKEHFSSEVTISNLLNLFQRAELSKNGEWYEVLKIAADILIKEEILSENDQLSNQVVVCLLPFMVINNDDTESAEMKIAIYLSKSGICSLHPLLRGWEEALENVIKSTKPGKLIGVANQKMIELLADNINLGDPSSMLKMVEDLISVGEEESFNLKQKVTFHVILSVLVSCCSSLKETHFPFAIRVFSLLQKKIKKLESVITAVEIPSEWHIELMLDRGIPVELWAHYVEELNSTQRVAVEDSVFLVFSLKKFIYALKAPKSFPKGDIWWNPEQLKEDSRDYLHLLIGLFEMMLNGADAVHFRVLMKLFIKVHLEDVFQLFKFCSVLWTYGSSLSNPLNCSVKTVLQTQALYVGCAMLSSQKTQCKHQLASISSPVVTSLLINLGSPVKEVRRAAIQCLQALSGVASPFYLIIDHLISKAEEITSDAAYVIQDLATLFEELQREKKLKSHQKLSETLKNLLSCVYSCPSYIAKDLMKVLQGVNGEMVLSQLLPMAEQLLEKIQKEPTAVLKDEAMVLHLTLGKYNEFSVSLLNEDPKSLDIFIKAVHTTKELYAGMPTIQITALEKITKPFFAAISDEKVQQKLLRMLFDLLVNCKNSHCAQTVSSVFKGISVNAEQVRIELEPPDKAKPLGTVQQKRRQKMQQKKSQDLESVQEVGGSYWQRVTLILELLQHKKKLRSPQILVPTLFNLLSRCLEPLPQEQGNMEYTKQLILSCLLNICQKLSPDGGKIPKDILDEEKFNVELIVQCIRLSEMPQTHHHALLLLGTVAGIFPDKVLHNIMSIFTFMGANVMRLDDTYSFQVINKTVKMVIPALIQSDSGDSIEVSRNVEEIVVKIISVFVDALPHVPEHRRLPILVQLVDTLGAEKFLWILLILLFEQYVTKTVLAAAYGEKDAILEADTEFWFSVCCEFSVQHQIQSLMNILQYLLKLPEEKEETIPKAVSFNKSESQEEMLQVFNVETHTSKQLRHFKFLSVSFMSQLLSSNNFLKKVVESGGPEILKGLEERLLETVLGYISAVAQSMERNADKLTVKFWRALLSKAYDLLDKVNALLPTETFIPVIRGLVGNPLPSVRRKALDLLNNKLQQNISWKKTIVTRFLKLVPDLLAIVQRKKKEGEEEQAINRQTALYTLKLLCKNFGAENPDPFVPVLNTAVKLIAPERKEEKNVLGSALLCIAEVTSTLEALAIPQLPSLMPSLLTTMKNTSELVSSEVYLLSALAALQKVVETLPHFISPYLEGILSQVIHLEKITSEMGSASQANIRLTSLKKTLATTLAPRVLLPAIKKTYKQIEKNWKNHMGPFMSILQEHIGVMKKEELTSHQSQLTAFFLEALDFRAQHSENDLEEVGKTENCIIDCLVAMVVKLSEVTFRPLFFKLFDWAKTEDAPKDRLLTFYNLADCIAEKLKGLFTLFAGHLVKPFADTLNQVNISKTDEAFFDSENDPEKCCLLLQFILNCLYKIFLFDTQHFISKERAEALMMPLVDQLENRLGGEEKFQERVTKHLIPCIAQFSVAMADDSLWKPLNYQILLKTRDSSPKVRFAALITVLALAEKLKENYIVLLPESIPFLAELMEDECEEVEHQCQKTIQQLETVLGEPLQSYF
UniProt Q9Y5Q8: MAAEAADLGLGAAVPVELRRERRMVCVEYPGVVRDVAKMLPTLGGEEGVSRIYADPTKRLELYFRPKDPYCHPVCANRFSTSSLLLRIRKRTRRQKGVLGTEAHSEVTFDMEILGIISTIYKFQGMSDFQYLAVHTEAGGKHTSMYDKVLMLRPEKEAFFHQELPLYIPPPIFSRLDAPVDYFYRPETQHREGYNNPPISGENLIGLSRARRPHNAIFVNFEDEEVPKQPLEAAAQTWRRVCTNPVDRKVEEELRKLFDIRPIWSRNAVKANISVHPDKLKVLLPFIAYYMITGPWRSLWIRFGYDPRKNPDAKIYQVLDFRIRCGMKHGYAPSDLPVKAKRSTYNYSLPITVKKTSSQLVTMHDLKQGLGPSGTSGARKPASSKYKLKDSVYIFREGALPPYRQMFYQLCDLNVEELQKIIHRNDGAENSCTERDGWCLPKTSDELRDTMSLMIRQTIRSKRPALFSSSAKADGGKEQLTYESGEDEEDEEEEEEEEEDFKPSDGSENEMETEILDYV
UniProt P09105: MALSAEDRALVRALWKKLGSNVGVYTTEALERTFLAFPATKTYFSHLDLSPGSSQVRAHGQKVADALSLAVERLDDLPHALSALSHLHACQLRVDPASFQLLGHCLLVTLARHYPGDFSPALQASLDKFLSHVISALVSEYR

[2] = compound: CC1=CC=C(C=C1)SC2=C3C=C(SC3=CN=C2)C(=O)N
Summary of the method: as §1

[3] = compound: CC1=NC(=CC=C1)C2=C(N=C(N2)C(C)(C)C)C3=CC4=NC=CN=C4C=C3
Summary of the method: as §1

Nexturastat A = compound: CCCCN(Cc1ccc(C(=O)NO)cc1)C(=O)Nc1ccccc1 [Nexturastat A]
Summary of the method: as §1

vemurafenib = compound: CCCS(=O)(=O)Nc1ccc(F)c(C(=O)c2c[nH]c3ncc(-c4ccc(Cl)cc4)cc23)c1F [vemurafenib]
Summary of the method: as §1

[4] = compound: CCCS(=O)(=O)Nc1ccc(F)c(C(=O)c2c[nH]c3ncc(Cl)cc23)c1F
Summary of the method: as §1

[5] = compound: CCCc1cc(C)[nH]c(=O)c1CNC(=O)c1cc(-c2ccnc(N3CCN(C)CC3)c2)cc2c1cnn2C(C)C
Summary of the method: as §1

barasertib = compound: CCN(CCCOc1ccc2c(Nc3cc(CC(=O)Nc4cccc(F)c4)[nH]n3)ncnc2c1)CCOP(=O)(O)O [barasertib]
Summary of the method: as §1

[6] = compound: CC[C@@H]1C(=O)N(C)c2cnc(Nc3ccc(C(=O)NC4CCN(C)CC4)cc3OC)nc2N1C1CCCC1
Summary of the method: as §1

volasertib = compound: CC[C@@H]1C(=O)N(C)c2cnc(Nc3ccc(C(=O)N[C@H]4CC[C@H](N5CCN(CC6CC6)CC5)CC4)cc3OC)nc2N1C(C)C [volasertib]
Summary of the method: as §1

[7] = compound: CC[C@H](C)N1C=C(C2=C(C=C(C=C21)C3=CN=C(C=C3)N4CCNCC4)C(=O)NCC5=C(C=C(NC5=O)C)C)C
Summary of the method: as §1

epoxomicin = compound: CC[C@H](C)[C@@H](C(=O)N[C@@H]([C@@H](C)O)C(=O)N[C@@H](CC(C)C)C(=O)[C@]1(CO1)C)NC(=O)[C@H]([C@@H](C)CC)N(C)C(=O)C [epoxomicin]
Summary of the method: as §1

[8] = compound: CCn1cc(-c2ccnc3[nH]c(-c4cccc(CN(C)C)c4)cc23)c(-c2ccc(NC(=O)N(C)C)cc2)n1
Summary of the method: as §1

[9] = compound: CN(C)CC(=O)Nc1ccc2[nH]c(=O)c3ccccc3c2c1
Summary of the method: as §1

rosiglitazone = compound: CN(CCOC1=CC=C(C=C1)C[C@H]2C(=O)NC(=O)S2)C3=CC=CC=N3 (racemic) [rosiglitazone]
Summary of the method: as §1

[10] = compound: CN1C2=C(C3=C1C(=O)N(N=C3)CC4=CC(=CC=C4)N)SC(=C2)S(=O)C
Summary of the method: as §1

[11] = compound: CN1CCC(CNc2ccc3ncc(-c4cccc(OC(F)(F)F)c4)n3n2)CC1
Summary of the method: as §1

[12] = compound: CC1=C(C=C(C=C1)NC(=O)C2=CC(=CC=C2)N(C)C)NC(=O)C3=CC=C(C=C3)O
Summary of the method: as §1

givinostat = compound: CCN(CC)Cc1ccc2cc(COC(=O)Nc3ccc(C(=O)NO)cc3)ccc2c1 [givinostat]
Summary of the method: as §1

[13] = compound: CCn1c(C(=O)N(C2CC2)C2CC2)cc2c3c(ncn3C)c(Nc3cc(C)n(C)n3)nc21
Summary of the method: as §1

Measured: log2 fold change

GTF3C6 (UniProt Q969F1)
inactive: [1] -0.041 | [2] -0.076 | [3] -0.051 | Nexturastat A 0.103 | vemurafenib -0.1 | [4] 0.038 | [5] 0.036 | barasertib 0.065 | [6] 0.061 | volasertib -0.146 | [7] 0.213 | epoxomicin -0.038 | [8] 0.272 | [9] -0.019 | rosiglitazone 0.047 | [10] 0.209 | [11] -0.311

HECTD1 (UniProt Q9ULT8)
inactive: [1] 0.04 | [12] -0.068 | [2] 0.144 | [3] -0.023 | vemurafenib -0.04 | [4] 0.126 | [5] 0.054 | givinostat 0.038 | barasertib 0.048 | [6] 0.107 | volasertib -0.221 | [7] 0.063 | epoxomicin 0.012 | [8] 0 | [9] 0.016 | [10] 0.17 | [11] -0.054
active: Nexturastat A 0.273

GSTM3 (UniProt P21266)
inactive: [1] 0.054 | [2] 0.004 | Nexturastat A 0.087 | vemurafenib 0.016 | [4] 0.128 | [5] 0.051 | givinostat 0.028 | barasertib 0.054 | [6] -0.118 | volasertib -0.323 | [7] 0.016 | epoxomicin -0.001 | [13] 0.003 | [8] -0.062 | [9] 0.056 | rosiglitazone 0.104 | [10] -0.022 | [11] -0.106

GSTM5 (UniProt P46439)
inactive: [1] 0.283 | [2] -0.055 | [3] 0.062 | Nexturastat A -0.232 | vemurafenib -0.044 | [4] -0.131 | [5] -0.126 | givinostat -0.257 | barasertib 0.071 | volasertib 0.084 | [7] -0.063 | epoxomicin -0.063 | [13] 0.069 | [8] 0.04 | [9] 0.012 | rosiglitazone 0.061 | [10] -0.031 | [11] 0.009

GTF2B (UniProt Q00403)
inactive: [1] -0.018 | [12] -0.092 | [2] 0.097 | [3] 0.097 | Nexturastat A -0.031 | vemurafenib 0.104 | [4] 0.167 | [5] 0.017 | givinostat 0.058 | barasertib 0.044 | [6] -0.076 | [7] 0.091 | epoxomicin 0.096 | [8] -0.015 | [9] 0.147 | [10] -0.002 | [11] -0.193
active: volasertib -0.323

HDGFL2 (UniProt Q7Z4V5)
active: [1] -0.281
inactive: [12] 0 | [2] -0.006 | [3] 0.049 | Nexturastat A 0.063 | vemurafenib -0.022 | [4] 0.007 | [5] -0.078 | givinostat 0.049 | barasertib 0.037 | [6] -0.019 | volasertib 0.014 | [7] -0.043 | epoxomicin 0.012 | [8] 0.015 | [9] -0.011 | [10] 0.006 | [11] -0.033

HDAC1 (UniProt Q13547)
active: Nexturastat A 1.45
inactive: [1] -0.11 | [12] -0.039 | [2] 0.051 | [3] 0.034 | vemurafenib 0.051 | [4] 0.14 | [5] -0.118 | barasertib 0.024 | [6] -0.025 | volasertib -0.216 | [7] 0.037 | epoxomicin -0.006 | [8] 0.019 | [9] 0.011 | [10] 0.001 | [11] -0.043

HEATR1 (UniProt Q9H583)
inactive: [1] -0.169 | [12] -0.028 | [2] -0.038 | [3] 0.032 | Nexturastat A 0.337 | vemurafenib -0.239 | [4] 0.132 | [5] 0.004 | givinostat 0.168 | barasertib 0.159 | volasertib -0.194 | [7] -0.197 | epoxomicin -0.115 | [13] -0.251 | [8] -0.062 | [9] 0.112 | rosiglitazone -0.065 | [10] 0.243 | [11] -0.122

GTF3C5 isoform 3 (UniProt Q9Y5Q8)
inactive: [1] 0.058 | [12] -0.022 | [2] 0.088 | [3] 0.007 | Nexturastat A 0.136 | vemurafenib 0.101 | [4] 0.056 | [5] 0.061 | givinostat 0.045 | barasertib 0.08 | [6] -0.188 | volasertib -0.157 | [7] 0.213 | epoxomicin -0.011 | [8] -0.034 | [9] 0.078 | [10] -0.025 | [11] 0.03

Two neighbouring records from above, quoted:
HDAC1 (UniProt Q13547)
active: Nexturastat A 1.45
inactive: [1] -0.11 | [12] -0.039 | [2] 0.051 | [3] 0.034 | vemurafenib 0.051 | [4] 0.14 | [5] -0.118 | barasertib 0.024 | [6] -0.025 | volasertib -0.216 | [7] 0.037 | epoxomicin -0.006 | [8] 0.019 | [9] 0.011 | [10] 0.001 | [11] -0.043

HEATR1 (UniProt Q9H583)
inactive: [1] -0.169 | [12] -0.028 | [2] -0.038 | [3] 0.032 | Nexturastat A 0.337 | vemurafenib -0.239 | [4] 0.132 | [5] 0.004 | givinostat 0.168 | barasertib 0.159 | volasertib -0.194 | [7] -0.197 | epoxomicin -0.115 | [13] -0.251 | [8] -0.062 | [9] 0.112 | rosiglitazone -0.065 | [10] 0.243 | [11] -0.122

Going on with the list.

HBQ1 (UniProt P09105)
inactive: [1] 0.053 | [12] -0.14 | [2] 0.025 | [3] 0.052 | Nexturastat A -0.028 | vemurafenib -0.013 | [4] 0.004 | [5] -0.012 | givinostat -0.043 | barasertib 0.038 | [6] 0.01 | volasertib -0.014 | [7] -0.005 | [8] -0.064 | [9] 0.047 | [10] -0.145 | [11] 0.063
active: epoxomicin 0.375

From the supplement of paper PMC10849652
